The values below come from the supplement of paper PMC5662767.

SMILES strings stand for the structures. Structures can show the parent of a compound that is named as a salt. This is one part of the list. Baselines shift from plate to plate; read single values as rough.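 The clonal Drosophila S2 line carries Smoothened with a circularly permuted GFP inserted in its cytoplasmic tail, which fluoresces once Hh-driven phosphorylation opens an inhibitory loop. Per-cell fluorescence was read by flow cytometry, scaled to Hh-stimulated untreated cells. Hits were groups of inhibitors sharing pathway targets that shifted fluorescence consistently, not single compounds.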

The assay relates to Drosophila S2 cl14 SmoIP sensor cells. Nature of the assay: normalized SmoIP GFP fluorescence (untreated unstimulated = 0%, untreated Hh-stimulated = 100%); higher = more Smo activation sensor fluorescence. To be noted: compound concentration: 15 uM, 24 h.
The mark [1] stands for this setting: stimulation: Hh conditioned medium (+Hh).
The mark [2] stands for this setting: stimulation: mock conditioned medium (-Hh).

`O=C1Nc2ccccc2/C1=C1/Nc2ccccc2C1=O` [Indirubin]: the “normalized SmoIP GFP fluorescence” value was 127% under setting [1] and -13.9% under setting [2].

For `O=C1CN2Cc3c(ccc(Cl)c3Cl)N=C2N1` [anagrelide-hydrochloride], the “normalized SmoIP GFP fluorescence” value was 109% under setting [1] and -4.92% under setting [2].

For the compound `CN1C(C(=O)Nc2ccccn2)=C(O)c2sc(Cl)cc2S1(=O)=O` [lornoxicam-xefo], the “normalized SmoIP GFP fluorescence” value under setting [1] came out at 155% and the “normalized SmoIP GFP fluorescence” value under setting [2] was -12.9%.

As for `Fc1ccc([C@@H]2CCNC[C@H]2COc2ccc3c(c2)OCO3)cc1` [paroxetine-hcl], the “normalized SmoIP GFP fluorescence” value by setting is: under setting [1], 140%; under setting [2], 22.2%.

For `Nc1cccc(-c2cc3c(Oc4cccc(O)c4)ncnc3[nH]2)c1`, the “normalized SmoIP GFP fluorescence” value is, setting by setting: under setting [1], 125%; under setting [2], 32%.

With `CC(C)(C)C#Cc1cc(N(C(=O)[C@H]2CC[C@H](C)CC2)[C@H]2CC[C@H](O)CC2)c(C(=O)O)s1`, the “normalized SmoIP GFP fluorescence” value stood at 146% under setting [1] and 48.1% under setting [2].

`CCOc1cc(CC(=O)N[C@@H](CC(C)C)c2ccccc2N2CCCCC2)ccc1C(=O)O` [Repaglinide]: the “normalized SmoIP GFP fluorescence” value runs as follows: under setting [1], 170%; under setting [2], 30%.

Consider `OCCn1cc(-c2cnc3nnn(Cc4ccc5ncccc5c4)c3n2)cn1`, for which the “normalized SmoIP GFP fluorescence” value came out at 134% under setting [1] and 3.72% under setting [2].

`C[C@H](Oc1cc(-c2cnn(C3CCNCC3)c2)cnc1N)c1c(Cl)ccc(F)c1Cl` [s-crizotinib]: the “normalized SmoIP GFP fluorescence” value came out at 144% under setting [1] and 63.2% under setting [2].

As to `CCCCOc1ccc(C(=O)Nc2ccc(F)cc2F)cc1`, the “normalized SmoIP GFP fluorescence” value under setting [1] was determined as 109% and the “normalized SmoIP GFP fluorescence” value under setting [2] was 1.61%.

In the case of `CNC(=O)[C@H](Cc1ccccc1)NC(=O)[C@H](CC(C)C)[C@H](CSc1cccs1)C(=O)NO`, the “normalized SmoIP GFP fluorescence” value was found to be 123% under setting [1] and 0.0767% under setting [2].

As to `NC(=O)c1ccc(I)c([N+](=O)[O-])c1`, the “normalized SmoIP GFP fluorescence” value came out at 150% under setting [1] and 35.5% under setting [2].

With `Cc1nnc(C(C)C)n1C1C[C@H]2CC[C@@H](C1)N2CC[C@H](NC(=O)C1CCC(F)(F)CC1)c1ccccc1` (stereo in doubt) [Maraviroc], the “normalized SmoIP GFP fluorescence” value is, setting by setting: under setting [1], 134%; under setting [2], -7.42%.

Turning to `C[C@@H]1C[C@H]2[C@@H]3CCC4=CC(=O)C=C[C@]4(C)[C@@]3(F)[C@@H](O)C[C@]2(C)[C@@]1(O)C(=O)CO` [Dexamethasone], the “normalized SmoIP GFP fluorescence” value runs as follows: under setting [1], 129%; under setting [2], 2.97%.

Consider `CC1=C(C(=O)OC2CCCCC2)C(c2ccc([N+](=O)[O-])cc2)C2=C(CC(C)(C)CC2=O)N1` (stereo not given), for which the “normalized SmoIP GFP fluorescence” value by setting is: under setting [1], 124%; under setting [2], 17.7%.

In the case of `Cc1ccc(C(=O)N(CCCN)[C@@H](c2oc3cc(Cl)ccc3c(=O)c2Cc2ccccc2)C(C)C)cc1`, the “normalized SmoIP GFP fluorescence” value reads like this: under setting [1], 220%; under setting [2], 93%.

With `Cc1ccccc1C(OCCN(C)C)c1ccccc1` (stereo not given) [orphenadrine-citrate-norflex], the “normalized SmoIP GFP fluorescence” value is, setting by setting: under setting [1], 142%; under setting [2], -6.61%.

Consider `CCN(CC)CC#CCOC(=O)C(O)(c1ccccc1)C1CCCCC1` (stereo not given) [oxybutynin-chloride], for which the “normalized SmoIP GFP fluorescence” value by setting is: under setting [1], 142%; under setting [2], 18.6%.

As for `NC(=O)c1ccc(-c2nc(-c3ccccn3)c(-c3ccc4c(c3)OCO4)[nH]2)cc1`, the “normalized SmoIP GFP fluorescence” value reads like this: under setting [1], 201%; under setting [2], 23.8%.

Turning to `C#C[C@]1(OC(C)=O)CC[C@H]2[C@@H]3CCC4=C[C@@H](OC(C)=O)CC[C@@H]4[C@H]3CC[C@@]21C` [ethynodiol-diacetate], the “normalized SmoIP GFP fluorescence” value is 110% under setting [1] and 0.815% under setting [2].

Take `CCc1cc2c(cc1CC)CC(NC[C@H](O)c1ccc(O)c3[nH]c(=O)ccc13)C2` [indacaterol-maleate]: the “normalized SmoIP GFP fluorescence” value by setting is: under setting [1], 130%; under setting [2], 15%.

As to `CCOC(=O)N1CCC(=C2c3ccc(Cl)cc3CCc3cccnc32)CC1` [Loratadine], the “normalized SmoIP GFP fluorescence” value by setting is: under setting [1], 158%; under setting [2], 34.9%.

Take `COc1ccc(C[C@H](NC(=O)[C@H](C)NC(=O)CN2CCOCC2)C(=O)N[C@@H](Cc2ccccc2)C(=O)[C@@]2(C)CO2)cc1`: the “normalized SmoIP GFP fluorescence” value runs as follows: under setting [1], 72.6%; under setting [2], 33.1%.

Turning to `Cc1cc(/C=C/C#N)cc(C)c1Nc1ccnc(Nc2ccc(C#N)cc2)n1` [rilpivirine], the “normalized SmoIP GFP fluorescence” value reads like this: under setting [1], 162%; under setting [2], 45.1%.

With `CCc1cccc2c3c([nH]c12)C(CC)(CC(=O)O)OCC3` (stereo not given) [Etodolac], the “normalized SmoIP GFP fluorescence” value stood at 131% under setting [1] and 0.274% under setting [2].

Regarding `Cc1cc(C)c(CNC(=O)c2cc(-c3ccc(CN4CCOCC4)cc3)cc3c2cnn3C2CCCC2)c(=O)[nH]1`, the “normalized SmoIP GFP fluorescence” value stood at 180% under setting [1] and 65% under setting [2].

On to `C[C@@]1(c2cc(-c3cncnc3)c(F)cc2F)CCSC(N)=N1`, for which the “normalized SmoIP GFP fluorescence” value by setting is: under setting [1], 142%; under setting [2], 24.1%.

For `c1ccc(-c2nn3c(c2-c2ccnc4cc(OCCN5CCOCC5)ccc24)CCC3)nc1`, the “normalized SmoIP GFP fluorescence” value amounted to 99.1% under setting [1] and 1.24% under setting [2].

Turning to `CN1C2CCCC1CC(NC(=O)c1nn(C)c3ccccc13)C2` (stereo not given) [Granisetron-Hydrochloride], the “normalized SmoIP GFP fluorescence” value turned out to be 135% under setting [1] and 2.64% under setting [2].

For `CC[C@H](NC(=O)[C@H](C)NC)C(=O)N1C[C@@H](O)C[C@H]1Cc1c(-c2[nH]c3cc(F)ccc3c2C[C@@H]2C[C@H](O)CN2C(=O)[C@H](CC)NC(=O)[C@H](C)NC)[nH]c2cc(F)ccc12`, the “normalized SmoIP GFP fluorescence” value is, setting by setting: under setting [1], 81.3%; under setting [2], 4.79%.

As for `NCCCCCNCC12CC3CC(CC(C3)C1)C2` [iem-1754-dihydrobromide], the “normalized SmoIP GFP fluorescence” value runs as follows: under setting [1], 110%; under setting [2], -1.34%.

As to `CC(C)(C)NS(=O)(=O)c1cncc(-c2cc(F)c3nc(N)nn3c2)c1`, the “normalized SmoIP GFP fluorescence” value is, setting by setting: under setting [1], 108%; under setting [2], -1.74%.

Turning to `CCN(CC)CCOC(=O)c1ccc(N)cc1` [procaine-novocaine-hcl], the “normalized SmoIP GFP fluorescence” value was 115% under setting [1] and -1.12% under setting [2].

In the case of `CCNC(=O)Nc1ccc(-c2nc3c(c(N4CCOC[C@@H]4C)n2)CCN(C2COC2)C3)cc1`, the “normalized SmoIP GFP fluorescence” value under setting [1] is 111% and the “normalized SmoIP GFP fluorescence” value under setting [2] stood at 17.8%.

As for `O=c1ncn2nc(Sc3ccc(F)cc3F)ccc2c1-c1c(Cl)cccc1Cl`, the “normalized SmoIP GFP fluorescence” value under setting [1] amounted to 111% and the “normalized SmoIP GFP fluorescence” value under setting [2] is -1.13%.
